Tested on: mSWI/SNF complexes
Experiment: mSWI/SNF complex purification with HA-tagged baits and mass spectrometry (peptide counts)
Design: species or system human
[1] = 293_HA-BRD7: HA-BRD7 bait purification, total peptide count per co-purified protein
[2] = 293_HA-BRD7: HA-BRD7 bait purification, unique peptide count per co-purified protein
[3] = 293_HA-BRD7 bait purification, mass spectrometry, total peptides per co-purified protein
[4] = 293_HA-BRD7 bait purification, mass spectrometry, unique peptides per co-purified protein
[5] = 293_HA-BRD7 bait purification, mass spectrometry, total peptide count per identified protein
[6] = 293_HA-BRD7 bait purification, mass spectrometry, unique peptide count per identified protein
[7] = total peptide count of the co-purified protein, 293_HA-BRD9 (HA-BRD9 bait, mass spectrometry), Table 3b
[8] = unique peptide count of the co-purified protein, 293_HA-BRD9 (HA-BRD9 bait, mass spectrometry), Table 3b
[9] = 293_HA-DPF2 purification, total peptides
[10] = 293_HA-DPF2 purification, unique peptides

Substance	Total [3]	Unique [4]	Total [5]	Unique [6]	further results
XRCC6	–	–	–	–	Total [1]: 8; Unique [2]: 8
TPR	4	4	–	–	–
CTPS1	–	–	1	1	–
PRKDC	–	–	–	–	Total [1]: 66; Unique [2]: 64; Total [7]: 31; Unique [8]: 27
GLTSCR1	–	–	–	–	Total [7]: 62; Unique [8]: 33
HMGB1	3	3	–	–	–
RFC5	4	4	–	–	–
TUBB4B	–	–	1	1	Total [7]: 1; Unique [8]: 1
PRPF8	–	–	–	–	Total [1]: 22; Unique [2]: 22; Total [9]: 3; Unique [10]: 3; Total [7]: 3; Unique [8]: 3
FANCI	–	–	1	1	–
TOR1AIP1	3	3	1	1	–
KARS	2	1	–	–	–
ESYT1	–	–	1	1	–
AFG3L2	–	–	–	–	Total [1]: 6; Unique [2]: 6
MRPL28	1	1	–	–	–
CYCS	–	–	1	1	–
FLG2	2	2	–	–	–
KHDRBS1	4	4	–	–	–
CDK12	–	–	–	–	Total [1]: 6; Unique [2]: 5
MCM7	–	–	–	–	Total [1]: 16; Unique [2]: 15; Total [9]: 1; Unique [10]: 1; Total [7]: 6; Unique [8]: 6
PCBP1	–	–	–	–	Total [1]: 10; Unique [2]: 10; Total [7]: 2; Unique [8]: 2
ANXA2	–	–	1	1	Total [7]: 4; Unique [8]: 3
RAB7A	–	–	1	1	–
MDN1	1	1	–	–	–
NUP210	2	2	–	–	–

Substance	Total [3]	Unique [4]	Total [5]	Unique [6]	further results
SMCHD1	2	2	–	–	–
DMBT1	–	–	–	–	Total [7]: 1; Unique [8]: 1
HSP90B1	–	–	–	–	Total [1]: 11; Unique [2]: 11
VCP	2	2	–	–	–
CPSF3L	–	–	1	1	–
EIF4H	2	1	–	–	–
##ATP1A2	–	–	1	1	–
HSPA1L	–	–	–	–	Total [1]: 16; Unique [2]: 13; Total [7]: 5; Unique [8]: 5
TOMM40	–	–	1	1	–
HSP90AB1	–	–	–	–	Total [1]: 4; Unique [2]: 4
HSPA9	–	–	–	–	Total [1]: 53; Unique [2]: 40; Total [9]: 10; Unique [10]: 7; Total [7]: 11; Unique [8]: 11
TUBA1B	–	–	1	1	–
DDX21	–	–	–	–	Total [1]: 18; Unique [2]: 17; Total [7]: 6; Unique [8]: 6
TUBB2A	–	–	–	–	Total [1]: 20; Unique [2]: 16; Total [9]: 3; Unique [10]: 3; Total [7]: 2; Unique [8]: 2
GRWD1	1	1	–	–	–
NIFK	–	–	–	–	Total [1]: 12; Unique [2]: 12
HNRNPK	–	–	–	–	Total [1]: 14; Unique [2]: 13
PRKAR2A	–	–	1	1	–
EPB41L5	–	–	–	–	Total [1]: 32; Unique [2]: 26
BCL7C	–	–	–	–	Total [1]: 17; Unique [2]: 10; Total [9]: 13; Unique [10]: 7; Total [7]: 3; Unique [8]: 3
NUP205	–	–	–	–	Total [1]: 8; Unique [2]: 7; Total [7]: 5; Unique [8]: 5
PSPC1	2	1	–	–	–
PI4KA	–	–	1	1	–
ZNF638	–	–	–	–	Total [1]: 10; Unique [2]: 10
WWP1	2	2	–	–	–

Substance	Total [3]	Unique [4]	Total [5]	Unique [6]	further results
TMA16	2	2	–	–	–
ABCA9	–	–	1	1	–
TECR	4	4	–	–	–
PSMC3	–	–	1	1	–
EMC1	3	3	–	–	–
PKM	–	–	–	–	Total [1]: 6; Unique [2]: 6
NPM1	–	–	–	–	Total [1]: 16; Unique [2]: 11
##DNAH5	3	2	–	–	–
MSH6	–	–	–	–	Total [1]: 20; Unique [2]: 18; Total [9]: 1; Unique [10]: 1; Total [7]: 7; Unique [8]: 7
RFC3	–	–	1	1	–
SMARCC1	–	–	–	–	Total [1]: 203; Unique [2]: 83; Total [9]: 359; Unique [10]: 87; Total [7]: 53; Unique [8]: 36
AGO2	2	2	–	–	–
TM9SF2	–	–	1	1	–
MACF1	–	–	–	–	Total [7]: 1; Unique [8]: 1
SUMO2	–	–	1	1	–
GAPDH	–	–	1	1	Total [7]: 1; Unique [8]: 1
NUP188	–	–	1	1	–
CCT3	3	3	–	–	–
DNM2	–	–	1	1	–
HEATR1	3	3	–	–	Total [7]: 1; Unique [8]: 1
SOX21	–	–	–	–	Total [9]: 1; Unique [10]: 1
PELO	–	–	1	1	–
ERCC4	2	1	–	–	–
ALDH3A2	–	–	1	1	–
HOXA5	–	–	1	1	–

Substance	Total [3]	Unique [4]	Total [5]	Unique [6]	further results
PGRMC1	3	3	–	–	–
CSNK2A1	–	–	1	1	–
CLK1	3	3	–	–	–
CFL1	1	1	–	–	–
PSMA2	–	–	1	1	–
PELP1	1	1	–	–	–
NCAPH2	–	–	1	1	–
HDAC1	–	–	1	1	–
SUCLG1	3	3	–	–	–
KPNA1	–	–	–	–	Total [1]: 4; Unique [2]: 4
ARID1B	–	–	–	–	Total [9]: 147; Unique [10]: 85
CD3EAP	–	–	1	1	–
RPL22L1	1	1	–	–	–
SNIP1	–	–	1	1	–
ERLIN2	2	2	–	–	–
DDX54	–	–	–	–	Total [1]: 29; Unique [2]: 26
##LRP8	–	–	1	1	–
ARF1	2	2	–	–	–
RFC4	–	–	–	–	Total [1]: 8; Unique [2]: 7
EFTUD2	–	–	–	–	Total [1]: 11; Unique [2]: 11; Total [7]: 6; Unique [8]: 6
SLC7A1	2	2	–	–	–
GPR141	–	–	1	1	–
HSPE1	–	–	1	1	–
DNAJB1	–	–	1	1	–
